# The supplement of paper PMC12595434, “Development of retinoid nuclear receptor pathway antagonists through targeting aldehyde dehydrogenase 1A3” (iScience, 2025)
# Protein sequences, listed by entry. Tags and fused reporters are not part of them. Lines headed by an entry give the natural chain unless they say otherwise; changes in a name come on top.
# UniProt Q6PJG2: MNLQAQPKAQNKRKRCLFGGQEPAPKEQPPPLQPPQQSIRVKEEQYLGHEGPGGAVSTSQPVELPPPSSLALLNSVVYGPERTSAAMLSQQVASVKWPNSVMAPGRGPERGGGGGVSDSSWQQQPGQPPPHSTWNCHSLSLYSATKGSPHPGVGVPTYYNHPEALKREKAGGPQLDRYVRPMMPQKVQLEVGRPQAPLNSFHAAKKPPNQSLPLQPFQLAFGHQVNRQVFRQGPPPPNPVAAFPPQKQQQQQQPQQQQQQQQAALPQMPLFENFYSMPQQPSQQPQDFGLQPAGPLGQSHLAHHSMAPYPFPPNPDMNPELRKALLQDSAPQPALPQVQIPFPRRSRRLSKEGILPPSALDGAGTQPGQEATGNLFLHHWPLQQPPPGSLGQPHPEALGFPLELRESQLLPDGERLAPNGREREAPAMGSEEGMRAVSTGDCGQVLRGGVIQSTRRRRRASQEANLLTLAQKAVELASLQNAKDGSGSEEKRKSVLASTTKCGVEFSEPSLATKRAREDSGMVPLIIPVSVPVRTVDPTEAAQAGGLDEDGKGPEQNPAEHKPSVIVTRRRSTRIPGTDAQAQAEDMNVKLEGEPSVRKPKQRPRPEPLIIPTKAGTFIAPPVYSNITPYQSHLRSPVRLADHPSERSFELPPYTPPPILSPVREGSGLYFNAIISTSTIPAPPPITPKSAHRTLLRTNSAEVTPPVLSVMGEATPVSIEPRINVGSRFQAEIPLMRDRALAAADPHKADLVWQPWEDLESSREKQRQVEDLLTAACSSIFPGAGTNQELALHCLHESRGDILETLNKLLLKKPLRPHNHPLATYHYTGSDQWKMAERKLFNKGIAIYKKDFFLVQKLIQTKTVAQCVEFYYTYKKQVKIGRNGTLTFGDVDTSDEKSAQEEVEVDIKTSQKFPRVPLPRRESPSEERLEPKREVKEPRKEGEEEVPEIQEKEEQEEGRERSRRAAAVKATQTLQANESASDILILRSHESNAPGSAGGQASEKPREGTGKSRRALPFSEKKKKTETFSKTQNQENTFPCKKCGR
# UniProt Q7Z2W4: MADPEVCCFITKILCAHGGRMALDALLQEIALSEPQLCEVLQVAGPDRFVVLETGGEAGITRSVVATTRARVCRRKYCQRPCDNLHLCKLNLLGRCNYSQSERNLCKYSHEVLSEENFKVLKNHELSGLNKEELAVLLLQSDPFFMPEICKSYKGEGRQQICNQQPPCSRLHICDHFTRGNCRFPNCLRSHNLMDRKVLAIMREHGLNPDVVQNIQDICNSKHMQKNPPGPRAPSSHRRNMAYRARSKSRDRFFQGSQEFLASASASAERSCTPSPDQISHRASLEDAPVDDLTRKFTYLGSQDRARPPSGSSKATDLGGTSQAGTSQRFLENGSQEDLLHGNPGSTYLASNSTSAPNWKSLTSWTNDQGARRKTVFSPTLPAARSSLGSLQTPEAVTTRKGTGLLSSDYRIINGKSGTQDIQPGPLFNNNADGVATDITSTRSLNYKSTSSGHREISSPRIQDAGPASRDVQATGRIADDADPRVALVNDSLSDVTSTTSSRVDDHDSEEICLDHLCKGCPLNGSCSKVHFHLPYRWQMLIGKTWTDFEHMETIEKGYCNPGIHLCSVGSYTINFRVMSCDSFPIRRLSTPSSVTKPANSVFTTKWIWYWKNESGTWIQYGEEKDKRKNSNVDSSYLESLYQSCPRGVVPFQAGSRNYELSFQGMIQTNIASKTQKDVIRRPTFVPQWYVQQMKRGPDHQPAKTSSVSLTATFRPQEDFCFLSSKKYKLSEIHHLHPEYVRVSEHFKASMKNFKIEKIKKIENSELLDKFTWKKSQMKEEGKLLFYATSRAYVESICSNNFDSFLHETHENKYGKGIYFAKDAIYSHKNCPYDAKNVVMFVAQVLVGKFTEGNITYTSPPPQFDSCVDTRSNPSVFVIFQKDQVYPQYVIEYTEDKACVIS
# UniProt Q7L3B6: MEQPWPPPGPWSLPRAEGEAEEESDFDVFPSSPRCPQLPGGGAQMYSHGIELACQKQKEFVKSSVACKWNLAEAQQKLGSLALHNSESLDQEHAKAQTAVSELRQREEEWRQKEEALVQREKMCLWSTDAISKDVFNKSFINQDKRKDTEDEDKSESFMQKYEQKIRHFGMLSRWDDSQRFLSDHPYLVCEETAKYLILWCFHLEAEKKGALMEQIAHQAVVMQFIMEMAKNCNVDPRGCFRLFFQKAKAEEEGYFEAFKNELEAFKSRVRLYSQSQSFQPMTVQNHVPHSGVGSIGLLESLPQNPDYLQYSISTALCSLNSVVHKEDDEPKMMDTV
# UniProt Q7Z2K6: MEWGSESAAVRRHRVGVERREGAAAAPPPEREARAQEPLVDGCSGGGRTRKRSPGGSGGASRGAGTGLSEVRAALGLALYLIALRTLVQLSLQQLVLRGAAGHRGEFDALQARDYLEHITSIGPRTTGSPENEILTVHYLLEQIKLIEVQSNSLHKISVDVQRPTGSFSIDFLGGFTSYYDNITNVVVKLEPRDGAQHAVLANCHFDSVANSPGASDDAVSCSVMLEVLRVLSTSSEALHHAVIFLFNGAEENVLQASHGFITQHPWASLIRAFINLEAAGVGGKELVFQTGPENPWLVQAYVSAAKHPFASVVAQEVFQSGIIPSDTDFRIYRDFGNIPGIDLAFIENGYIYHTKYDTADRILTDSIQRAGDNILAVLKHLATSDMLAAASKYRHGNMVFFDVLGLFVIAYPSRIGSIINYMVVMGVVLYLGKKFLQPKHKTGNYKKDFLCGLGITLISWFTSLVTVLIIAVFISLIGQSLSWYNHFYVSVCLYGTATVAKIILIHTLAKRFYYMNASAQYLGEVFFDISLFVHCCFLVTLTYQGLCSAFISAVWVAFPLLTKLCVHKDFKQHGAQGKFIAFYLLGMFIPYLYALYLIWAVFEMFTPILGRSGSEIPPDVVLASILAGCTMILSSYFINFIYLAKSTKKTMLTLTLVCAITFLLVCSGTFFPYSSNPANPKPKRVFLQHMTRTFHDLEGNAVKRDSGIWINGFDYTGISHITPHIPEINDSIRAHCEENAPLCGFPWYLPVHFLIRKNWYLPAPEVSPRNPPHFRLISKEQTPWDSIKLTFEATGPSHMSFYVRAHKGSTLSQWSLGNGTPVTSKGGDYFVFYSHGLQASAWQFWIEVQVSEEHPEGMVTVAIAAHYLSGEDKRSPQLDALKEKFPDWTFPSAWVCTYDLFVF
# UniProt Q76I76: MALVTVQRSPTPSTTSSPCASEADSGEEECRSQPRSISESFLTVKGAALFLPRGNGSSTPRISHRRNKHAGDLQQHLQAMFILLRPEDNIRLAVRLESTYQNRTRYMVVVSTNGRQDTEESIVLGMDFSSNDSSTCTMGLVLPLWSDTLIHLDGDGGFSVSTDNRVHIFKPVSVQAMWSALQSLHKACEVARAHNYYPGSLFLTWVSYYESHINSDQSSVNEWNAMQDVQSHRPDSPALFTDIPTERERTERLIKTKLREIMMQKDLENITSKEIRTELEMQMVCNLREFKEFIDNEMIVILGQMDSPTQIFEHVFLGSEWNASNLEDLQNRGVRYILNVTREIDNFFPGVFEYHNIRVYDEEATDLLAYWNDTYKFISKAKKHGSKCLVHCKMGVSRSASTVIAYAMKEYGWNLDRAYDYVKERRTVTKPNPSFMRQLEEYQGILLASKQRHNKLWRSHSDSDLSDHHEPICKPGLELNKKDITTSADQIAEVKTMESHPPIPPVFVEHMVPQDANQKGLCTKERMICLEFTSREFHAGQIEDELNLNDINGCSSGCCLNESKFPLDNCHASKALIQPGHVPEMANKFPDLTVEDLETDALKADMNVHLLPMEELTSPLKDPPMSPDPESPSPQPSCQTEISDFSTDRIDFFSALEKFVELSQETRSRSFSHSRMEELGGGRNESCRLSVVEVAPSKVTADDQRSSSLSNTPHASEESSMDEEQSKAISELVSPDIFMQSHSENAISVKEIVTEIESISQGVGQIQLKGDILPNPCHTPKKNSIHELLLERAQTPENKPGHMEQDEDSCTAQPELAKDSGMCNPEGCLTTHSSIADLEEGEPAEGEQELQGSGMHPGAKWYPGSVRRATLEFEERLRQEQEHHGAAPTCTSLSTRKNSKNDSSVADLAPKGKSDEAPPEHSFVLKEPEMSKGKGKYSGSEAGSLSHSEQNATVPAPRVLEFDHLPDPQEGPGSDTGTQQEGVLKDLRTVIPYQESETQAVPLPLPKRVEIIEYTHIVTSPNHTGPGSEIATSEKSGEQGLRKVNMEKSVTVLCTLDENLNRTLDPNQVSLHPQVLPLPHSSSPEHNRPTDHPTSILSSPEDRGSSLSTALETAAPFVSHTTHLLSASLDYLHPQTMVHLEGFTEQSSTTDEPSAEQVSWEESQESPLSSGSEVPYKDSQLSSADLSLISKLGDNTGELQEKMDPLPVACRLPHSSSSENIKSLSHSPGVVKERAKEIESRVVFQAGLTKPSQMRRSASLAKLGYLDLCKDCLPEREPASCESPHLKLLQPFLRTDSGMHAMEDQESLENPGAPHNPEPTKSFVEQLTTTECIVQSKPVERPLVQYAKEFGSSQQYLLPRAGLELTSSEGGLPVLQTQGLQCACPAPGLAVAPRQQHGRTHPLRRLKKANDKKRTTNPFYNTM
# UniProt Q6UB28: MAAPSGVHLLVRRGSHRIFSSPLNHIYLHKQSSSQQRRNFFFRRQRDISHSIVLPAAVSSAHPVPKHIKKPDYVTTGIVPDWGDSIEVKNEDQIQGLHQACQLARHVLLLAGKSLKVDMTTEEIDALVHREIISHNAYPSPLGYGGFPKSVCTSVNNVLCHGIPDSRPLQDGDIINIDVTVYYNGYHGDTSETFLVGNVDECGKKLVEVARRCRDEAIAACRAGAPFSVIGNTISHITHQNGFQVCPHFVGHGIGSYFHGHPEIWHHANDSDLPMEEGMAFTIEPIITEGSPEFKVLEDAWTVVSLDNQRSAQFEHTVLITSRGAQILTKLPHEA
# UniProt Q75QN2, whole entry: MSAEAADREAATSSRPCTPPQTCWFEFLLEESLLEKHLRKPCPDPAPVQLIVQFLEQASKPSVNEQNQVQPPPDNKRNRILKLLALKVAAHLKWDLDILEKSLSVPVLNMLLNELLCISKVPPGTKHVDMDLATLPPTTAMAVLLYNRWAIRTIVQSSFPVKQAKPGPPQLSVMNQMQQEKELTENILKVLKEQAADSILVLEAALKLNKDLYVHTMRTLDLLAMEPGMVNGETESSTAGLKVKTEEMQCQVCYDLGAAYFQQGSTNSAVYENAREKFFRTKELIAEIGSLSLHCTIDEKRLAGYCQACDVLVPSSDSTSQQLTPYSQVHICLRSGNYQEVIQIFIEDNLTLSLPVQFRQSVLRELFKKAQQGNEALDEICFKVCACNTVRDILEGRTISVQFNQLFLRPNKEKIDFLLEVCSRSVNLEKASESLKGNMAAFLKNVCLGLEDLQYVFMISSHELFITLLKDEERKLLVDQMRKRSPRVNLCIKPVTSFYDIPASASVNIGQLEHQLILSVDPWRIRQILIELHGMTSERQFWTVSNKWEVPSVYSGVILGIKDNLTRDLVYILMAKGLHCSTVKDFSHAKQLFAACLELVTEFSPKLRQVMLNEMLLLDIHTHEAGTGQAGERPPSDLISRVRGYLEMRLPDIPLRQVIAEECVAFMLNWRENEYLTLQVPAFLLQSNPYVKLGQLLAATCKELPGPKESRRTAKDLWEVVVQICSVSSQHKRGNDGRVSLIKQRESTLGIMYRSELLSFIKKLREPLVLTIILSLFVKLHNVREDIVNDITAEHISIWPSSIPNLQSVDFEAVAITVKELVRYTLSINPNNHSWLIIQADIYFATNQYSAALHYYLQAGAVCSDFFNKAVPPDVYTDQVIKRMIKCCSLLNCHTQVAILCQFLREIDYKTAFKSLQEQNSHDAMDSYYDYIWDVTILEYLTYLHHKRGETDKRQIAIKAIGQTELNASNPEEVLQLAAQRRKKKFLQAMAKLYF
# UniProt Q7Z3B4: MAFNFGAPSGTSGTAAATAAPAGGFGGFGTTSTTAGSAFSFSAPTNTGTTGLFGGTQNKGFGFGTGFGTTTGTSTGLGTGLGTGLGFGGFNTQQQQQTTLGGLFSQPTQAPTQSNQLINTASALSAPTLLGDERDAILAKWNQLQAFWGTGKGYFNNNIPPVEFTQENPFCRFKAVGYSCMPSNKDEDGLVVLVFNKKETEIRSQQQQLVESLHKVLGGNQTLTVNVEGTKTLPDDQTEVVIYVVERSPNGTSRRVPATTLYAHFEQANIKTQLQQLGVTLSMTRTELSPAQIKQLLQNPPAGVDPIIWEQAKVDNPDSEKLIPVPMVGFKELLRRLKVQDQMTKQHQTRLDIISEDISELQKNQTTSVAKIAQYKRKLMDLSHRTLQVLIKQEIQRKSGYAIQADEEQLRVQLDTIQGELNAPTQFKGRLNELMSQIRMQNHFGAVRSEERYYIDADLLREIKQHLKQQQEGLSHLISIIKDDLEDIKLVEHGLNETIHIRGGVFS
# The other results are listed elsewhere or left out. Single values of this set are uncertain.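 Many melting curves are irregular; where none melted, Tm was taken as 64 °C.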
# Compound: CCc1cnccc1C(=O)Nc1cc2c(cc1F)NC(=O)CC2
# Assay: melting temperature shift (DMSO Tm minus MBE1-treated Tm) in cellular thermal proteome profiling; higher = less thermal stabilization by MBE1 (negative = stabilized by MBE1)
# Conditions: A375
Target,melting temperature shift (MBE1 concentration: 1 uM) [°C],melting temperature shift (MBE1 concentration: 100 nM) [°C]
TMEM205 (UniProt Q6UW68),-2.33,
ELMSAN1 (UniProt Q6PJG2),-0.391,-0.154
MRPL10 (UniProt Q7Z7H8),1.47,1.39
TMTC3 (UniProt Q6ZXV5),0.891,0.525
ZC3HAV1 (UniProt Q7Z2W4),-0.821,-1.03
UniProt Q6XUX3,0.14,0.989
UniProt Q75N03,-0.532,0.583
CDC37L1 (UniProt Q7L3B6),0.0916,0.202
ERMP1 (UniProt Q7Z2K6),-2.78,
RSBN1L (UniProt Q6PCB5),1.05,-1.08
UniProt Q6PL18,-0.458,0.358
IQGAP3 (UniProt Q86VI3),-0.359,-0.732
B3GLCT (UniProt Q6Y288),0.402,-0.798
NBEAL1 (UniProt Q6ZS30),0.531,-0.0305
UniProt Q6ZU80,0.57,-1.63
FRRS1 (UniProt Q6ZNA5),,-0.791
GDPGP1 (UniProt Q6ZNW5),0.00611,-0.128
UniProt Q6ZTN6,-1.57,-1.57
DPP9 (UniProt Q86TI2),0.33,-0.275
UniProt Q7L099,-1.66,-0.696
AFTPH (UniProt Q6ULP2),0.586,0.342
UniProt Q7L211,,-1.31
MTERF4 (UniProt Q7Z6M4),,-0.884
MON1B (UniProt Q7L1V2),-0.206,-0.97
SASS6 (UniProt Q6UVJ0),0.295,-0.869

Target,melting temperature shift (MBE1 concentration: 1 uM) [°C],melting temperature shift (MBE1 concentration: 100 nM) [°C]
UniProt Q7L523,1,-3.76
DENND5B (UniProt Q6ZUT9),-6.66,
TTC21B (UniProt Q7Z4L5),-7.99,-1.22
UniProt Q6ZT62,0.159,-0.366
UniProt Q7Z7B1,,-0.563
PPP1R21 (UniProt Q6ZMI0),-0.442,-0.418
UniProt Q76I76,-0.0916,1.5
KDELC1 (UniProt Q6UW63),-0.0738,-1.15
UniProt Q70CQ3,,1.16
UniProt Q7Z6I8,-3.27,-3.05
UniProt Q6UWU4,-1.75,
PAXIP1 (UniProt Q6ZW49),3.47,1.37
UniProt Q6UB28,1.4,0.282
BRAT1 (UniProt Q6PJG6),0.301,-0.634
UBE2R2 (UniProt Q712K3),12.3,-0.865
DYM (UniProt Q7RTS9),0.379,1.43
DPH6 (UniProt Q7L8W6),0.0855,0.36
ATG9A (UniProt Q7Z3C6),0.116,-0.299
USP48 (UniProt Q86UV5),-0.365,-0.442
CSPG4 (UniProt Q6UVK1),-1.44,-5.08
UniProt Q86U86,-0.5,-0.173
LARP4 (UniProt Q71RC2),-0.476,-0.795
UniProt Q75QN2,-0.0244,-0.0733
KYAT3 (UniProt Q6YP21),-2.63,-1.17
NUP54 (UniProt Q7Z3B4),0.415,0.971

Target,melting temperature shift (MBE1 concentration: 1 uM) [°C],melting temperature shift (MBE1 concentration: 100 nM) [°C]
UniProt Q7Z7M9,0.488,-0.307
BRAP (UniProt Q7Z569),-0.32,0.0988
HDGFRP2 (UniProt Q7Z4V5),0.879,-2.01
TAOK1 (UniProt Q7L7X3),0.458,0.195
VPS36 (UniProt Q86VN1),0.951,0.055
UniProt Q7Z5J4,0.885,0.855
UniProt Q86U42,0.159,0.8
PRUNE (UniProt Q86TP1),0.409,1.33
WDR74 (UniProt Q6RFH5),-0.119,-0.93
ALKBH5 (UniProt Q6P6C2),0.531,-0.397
UniProt Q86TS9,1.25,3.32
UniProt Q7Z7M0,0.768,-1.23
HSDL2 (UniProt Q6YN16),0.537,0.629
UniProt Q86UW6,-0.814,-0.781
MPRIP (UniProt Q6WCQ1),0.00611,0.824
CTR9 (UniProt Q6PD62),-0.032,-0.179
UniProt Q86TI0,-2.78,0.618
UniProt Q7Z5Q1,0.727,-0.0366
MICAL3 (UniProt Q7RTP6),0.11,0.324
CYP20A1 (UniProt Q6UW02),1.17,-1.16
SUPT6H (UniProt Q7KZ85),-0.574,-0.682
CCDC186 (UniProt Q7Z3E2),0.598,1.64
QSOX2 (UniProt Q6ZRP7),0.597,-1.18

# Complete entries from above. Order of values: melting temperature shift (MBE1 concentration: 1 uM) [°C]	melting temperature shift (MBE1 concentration: 100 nM) [°C]
# TAOK1 (UniProt Q7L7X3) as listed: 0.458	0.195
# USP48 (UniProt Q86UV5) as listed: -0.365	-0.442
# UniProt Q6ZU80 as listed: 0.57	-1.63
# UniProt Q86TS9 as listed: 1.25	3.32
